Shown are results outside the selection of targets with a hit, which stands elsewhere. This is a noisy data set. This is a selection; strong and weak results do not stand in their true shares.
Compound: COC(=O)/C=C/c1ccccc1 [methyl cinnamate]
Assay: log2 ratio of iodoacetamide-alkyne labeling of the cysteine site, DMSO over compound (competition); higher = stronger covalent engagement of the cysteine by the compound, active = 1 or more
Details: 500 µM; treatment time 1 h; system: HEK293T cell lysate
Summary of the method: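 Three replicates, each with duplicate channels, were prepared from HEK293T lysate (2 mg/mL) treated with vehicle or electrophile at 500 µM for 1 h at ambient temperature. Iodoacetamide alkyne was then applied for 1 h, and samples were clicked to sCIP-TMT reagents, pooled, trypsin-digested overnight at 37 °C, enriched on streptavidin, acid-eluted and analysed on Orbitrap Eclipse LC-MS/MS with FAIMS, with FragPipe quantification. The log2 competition ratio per cysteine is the mean control-channel divided by the mean compound-channel reporter intensity. Cysteines quantified in only one replicate were left out.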

Chains of the proteins cited; added tags and fusions are not shown. Lines headed by an entry give the natural chain unless they say otherwise; changes in a name come on top.
UniProt Q86YV9: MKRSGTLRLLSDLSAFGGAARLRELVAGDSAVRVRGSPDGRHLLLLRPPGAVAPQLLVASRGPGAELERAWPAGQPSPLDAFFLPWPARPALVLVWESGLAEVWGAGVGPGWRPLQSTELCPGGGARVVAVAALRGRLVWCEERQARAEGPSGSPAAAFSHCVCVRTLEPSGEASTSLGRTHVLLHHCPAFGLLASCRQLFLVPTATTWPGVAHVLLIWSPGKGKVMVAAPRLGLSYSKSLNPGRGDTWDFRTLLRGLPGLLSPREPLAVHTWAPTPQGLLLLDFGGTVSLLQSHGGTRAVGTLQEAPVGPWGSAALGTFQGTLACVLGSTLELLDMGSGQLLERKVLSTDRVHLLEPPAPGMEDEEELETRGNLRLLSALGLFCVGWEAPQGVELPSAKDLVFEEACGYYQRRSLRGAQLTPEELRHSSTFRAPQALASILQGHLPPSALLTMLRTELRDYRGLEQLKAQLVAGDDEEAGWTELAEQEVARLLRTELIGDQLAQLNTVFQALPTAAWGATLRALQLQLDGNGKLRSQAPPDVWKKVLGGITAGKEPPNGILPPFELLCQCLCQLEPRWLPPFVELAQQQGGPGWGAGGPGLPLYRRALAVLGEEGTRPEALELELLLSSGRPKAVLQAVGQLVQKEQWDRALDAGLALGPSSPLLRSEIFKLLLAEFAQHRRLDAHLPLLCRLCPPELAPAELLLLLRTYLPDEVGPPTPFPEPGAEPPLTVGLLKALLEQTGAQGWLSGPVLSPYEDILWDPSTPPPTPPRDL
UniProt Q86Y56: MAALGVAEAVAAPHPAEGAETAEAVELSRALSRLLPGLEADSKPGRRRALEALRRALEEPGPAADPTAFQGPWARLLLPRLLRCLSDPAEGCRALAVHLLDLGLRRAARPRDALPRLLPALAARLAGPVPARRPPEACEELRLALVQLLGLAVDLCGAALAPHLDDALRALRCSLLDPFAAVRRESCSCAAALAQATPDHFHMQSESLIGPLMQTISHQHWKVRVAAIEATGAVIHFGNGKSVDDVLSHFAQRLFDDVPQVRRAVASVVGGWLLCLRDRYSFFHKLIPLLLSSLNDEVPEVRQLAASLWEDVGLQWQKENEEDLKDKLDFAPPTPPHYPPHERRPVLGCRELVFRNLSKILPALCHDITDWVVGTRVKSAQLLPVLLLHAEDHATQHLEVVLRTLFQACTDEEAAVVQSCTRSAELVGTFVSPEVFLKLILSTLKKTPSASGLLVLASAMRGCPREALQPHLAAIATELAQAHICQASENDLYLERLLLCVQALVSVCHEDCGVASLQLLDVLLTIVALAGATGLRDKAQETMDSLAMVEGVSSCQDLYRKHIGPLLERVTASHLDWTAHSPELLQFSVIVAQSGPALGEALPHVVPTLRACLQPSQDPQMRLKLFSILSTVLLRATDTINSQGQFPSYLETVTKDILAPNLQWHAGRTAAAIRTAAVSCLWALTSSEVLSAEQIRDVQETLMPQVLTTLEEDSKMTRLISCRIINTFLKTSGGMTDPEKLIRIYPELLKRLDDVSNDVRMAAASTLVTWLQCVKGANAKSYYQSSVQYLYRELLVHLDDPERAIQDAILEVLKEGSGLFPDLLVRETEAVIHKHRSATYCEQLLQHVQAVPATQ
UniProt Q86YH6: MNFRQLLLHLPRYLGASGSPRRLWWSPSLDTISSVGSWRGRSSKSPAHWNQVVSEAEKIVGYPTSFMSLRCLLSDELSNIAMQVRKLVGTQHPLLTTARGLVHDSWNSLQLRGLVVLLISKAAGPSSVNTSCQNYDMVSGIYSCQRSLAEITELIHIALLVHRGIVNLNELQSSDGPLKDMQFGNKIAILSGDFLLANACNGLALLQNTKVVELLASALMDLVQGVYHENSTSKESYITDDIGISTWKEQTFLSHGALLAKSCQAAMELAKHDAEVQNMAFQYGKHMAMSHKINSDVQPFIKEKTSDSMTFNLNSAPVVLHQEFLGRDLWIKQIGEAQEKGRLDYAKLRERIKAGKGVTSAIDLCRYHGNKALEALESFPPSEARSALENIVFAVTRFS
UniProt Q8IZ69: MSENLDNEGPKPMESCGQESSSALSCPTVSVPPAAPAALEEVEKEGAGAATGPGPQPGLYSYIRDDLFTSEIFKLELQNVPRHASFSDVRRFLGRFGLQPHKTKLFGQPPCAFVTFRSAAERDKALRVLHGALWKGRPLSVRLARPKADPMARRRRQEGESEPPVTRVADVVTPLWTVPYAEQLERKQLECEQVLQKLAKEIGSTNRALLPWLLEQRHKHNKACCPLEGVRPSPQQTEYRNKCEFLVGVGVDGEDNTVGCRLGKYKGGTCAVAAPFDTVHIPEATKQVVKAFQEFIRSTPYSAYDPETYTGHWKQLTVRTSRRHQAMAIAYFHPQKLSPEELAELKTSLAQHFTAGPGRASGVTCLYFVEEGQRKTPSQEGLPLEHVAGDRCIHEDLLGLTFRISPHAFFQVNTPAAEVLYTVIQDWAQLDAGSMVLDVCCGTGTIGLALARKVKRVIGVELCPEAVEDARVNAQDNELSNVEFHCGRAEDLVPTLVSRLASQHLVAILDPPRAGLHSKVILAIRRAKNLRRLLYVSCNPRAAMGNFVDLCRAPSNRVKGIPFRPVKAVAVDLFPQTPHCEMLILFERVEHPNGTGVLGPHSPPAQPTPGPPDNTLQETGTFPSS
UniProt Q86TG7: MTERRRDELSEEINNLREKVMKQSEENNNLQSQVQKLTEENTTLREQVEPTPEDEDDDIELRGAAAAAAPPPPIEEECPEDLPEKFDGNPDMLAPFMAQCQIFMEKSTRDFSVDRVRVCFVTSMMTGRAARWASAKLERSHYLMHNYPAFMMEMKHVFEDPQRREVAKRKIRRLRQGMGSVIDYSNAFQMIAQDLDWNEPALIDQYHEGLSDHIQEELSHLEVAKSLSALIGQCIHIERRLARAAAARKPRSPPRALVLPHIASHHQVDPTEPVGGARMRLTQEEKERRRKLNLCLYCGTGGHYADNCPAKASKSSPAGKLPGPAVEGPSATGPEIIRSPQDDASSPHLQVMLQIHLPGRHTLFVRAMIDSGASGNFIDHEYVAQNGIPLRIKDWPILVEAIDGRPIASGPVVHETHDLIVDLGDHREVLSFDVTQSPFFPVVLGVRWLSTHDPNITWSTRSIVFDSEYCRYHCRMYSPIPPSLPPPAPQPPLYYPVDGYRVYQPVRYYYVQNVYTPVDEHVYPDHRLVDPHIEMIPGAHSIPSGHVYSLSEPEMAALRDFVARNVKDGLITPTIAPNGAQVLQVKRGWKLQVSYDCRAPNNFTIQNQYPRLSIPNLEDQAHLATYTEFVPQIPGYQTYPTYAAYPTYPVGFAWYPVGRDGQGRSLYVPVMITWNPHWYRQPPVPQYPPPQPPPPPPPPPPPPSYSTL
UniProt Q8IX01: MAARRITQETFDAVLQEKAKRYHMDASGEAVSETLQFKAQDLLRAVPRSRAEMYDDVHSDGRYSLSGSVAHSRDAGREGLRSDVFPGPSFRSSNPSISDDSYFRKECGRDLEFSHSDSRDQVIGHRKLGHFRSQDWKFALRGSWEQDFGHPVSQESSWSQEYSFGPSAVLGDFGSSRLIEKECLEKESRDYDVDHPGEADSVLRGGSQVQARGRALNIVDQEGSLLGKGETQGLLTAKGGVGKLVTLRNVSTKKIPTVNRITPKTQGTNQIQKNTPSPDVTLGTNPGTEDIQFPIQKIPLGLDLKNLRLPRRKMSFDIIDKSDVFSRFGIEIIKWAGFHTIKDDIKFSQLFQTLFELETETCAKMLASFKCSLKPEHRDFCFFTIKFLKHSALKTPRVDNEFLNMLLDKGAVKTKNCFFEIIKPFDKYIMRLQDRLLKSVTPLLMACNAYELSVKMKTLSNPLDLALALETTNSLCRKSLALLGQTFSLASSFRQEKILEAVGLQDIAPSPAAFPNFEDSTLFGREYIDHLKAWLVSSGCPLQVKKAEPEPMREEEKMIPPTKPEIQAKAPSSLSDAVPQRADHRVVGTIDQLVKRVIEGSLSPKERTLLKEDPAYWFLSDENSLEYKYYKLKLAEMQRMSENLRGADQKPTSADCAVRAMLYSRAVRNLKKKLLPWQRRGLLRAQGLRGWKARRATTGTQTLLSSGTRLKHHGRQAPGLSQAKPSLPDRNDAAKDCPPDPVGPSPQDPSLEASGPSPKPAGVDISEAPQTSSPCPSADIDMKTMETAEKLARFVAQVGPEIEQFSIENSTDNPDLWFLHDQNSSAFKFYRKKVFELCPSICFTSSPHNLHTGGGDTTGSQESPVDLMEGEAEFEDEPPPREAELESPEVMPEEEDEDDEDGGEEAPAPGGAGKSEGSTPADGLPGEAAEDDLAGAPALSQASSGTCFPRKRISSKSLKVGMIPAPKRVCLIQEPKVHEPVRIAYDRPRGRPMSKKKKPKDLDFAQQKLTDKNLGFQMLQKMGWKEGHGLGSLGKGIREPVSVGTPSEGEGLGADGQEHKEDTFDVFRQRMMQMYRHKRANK
UniProt Q7L5Y9: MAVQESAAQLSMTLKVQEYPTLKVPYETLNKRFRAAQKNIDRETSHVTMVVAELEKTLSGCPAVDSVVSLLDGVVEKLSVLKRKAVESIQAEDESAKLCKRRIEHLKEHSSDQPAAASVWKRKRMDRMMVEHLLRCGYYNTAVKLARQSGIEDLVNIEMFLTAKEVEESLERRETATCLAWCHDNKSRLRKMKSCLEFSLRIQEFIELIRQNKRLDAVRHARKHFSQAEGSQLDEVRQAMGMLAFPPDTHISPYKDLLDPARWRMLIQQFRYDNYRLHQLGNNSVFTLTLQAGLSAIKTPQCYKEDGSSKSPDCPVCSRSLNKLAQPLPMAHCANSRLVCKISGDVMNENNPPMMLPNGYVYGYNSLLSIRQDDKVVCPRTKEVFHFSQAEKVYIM
UniProt Q8IY18: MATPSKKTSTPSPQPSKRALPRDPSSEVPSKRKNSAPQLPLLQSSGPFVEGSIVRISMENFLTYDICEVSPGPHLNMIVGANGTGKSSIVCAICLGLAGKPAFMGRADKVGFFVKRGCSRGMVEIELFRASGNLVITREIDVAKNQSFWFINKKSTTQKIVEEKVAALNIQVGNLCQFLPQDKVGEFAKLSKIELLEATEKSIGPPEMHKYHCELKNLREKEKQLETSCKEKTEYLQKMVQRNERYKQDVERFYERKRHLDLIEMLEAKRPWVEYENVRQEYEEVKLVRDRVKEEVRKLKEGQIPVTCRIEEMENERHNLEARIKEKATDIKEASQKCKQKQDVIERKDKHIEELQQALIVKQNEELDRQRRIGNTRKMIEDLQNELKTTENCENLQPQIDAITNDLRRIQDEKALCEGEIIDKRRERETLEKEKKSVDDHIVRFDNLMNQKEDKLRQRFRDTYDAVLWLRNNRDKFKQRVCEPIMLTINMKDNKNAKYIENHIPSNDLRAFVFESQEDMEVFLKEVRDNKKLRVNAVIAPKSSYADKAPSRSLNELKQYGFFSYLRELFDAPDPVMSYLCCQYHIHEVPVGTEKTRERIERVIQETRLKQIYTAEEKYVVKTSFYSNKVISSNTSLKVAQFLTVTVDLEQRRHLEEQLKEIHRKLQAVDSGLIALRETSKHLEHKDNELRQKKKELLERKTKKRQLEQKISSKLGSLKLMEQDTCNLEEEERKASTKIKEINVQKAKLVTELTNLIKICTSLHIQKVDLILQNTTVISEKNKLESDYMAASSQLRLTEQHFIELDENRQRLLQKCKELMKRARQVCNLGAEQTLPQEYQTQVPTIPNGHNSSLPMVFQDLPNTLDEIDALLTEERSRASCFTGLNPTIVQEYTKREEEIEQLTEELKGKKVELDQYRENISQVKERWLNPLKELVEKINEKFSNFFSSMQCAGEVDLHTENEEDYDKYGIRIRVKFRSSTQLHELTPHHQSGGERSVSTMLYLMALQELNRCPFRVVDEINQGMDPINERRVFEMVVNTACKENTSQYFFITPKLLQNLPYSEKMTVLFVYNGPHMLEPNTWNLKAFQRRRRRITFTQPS
UniProt Q86YP4: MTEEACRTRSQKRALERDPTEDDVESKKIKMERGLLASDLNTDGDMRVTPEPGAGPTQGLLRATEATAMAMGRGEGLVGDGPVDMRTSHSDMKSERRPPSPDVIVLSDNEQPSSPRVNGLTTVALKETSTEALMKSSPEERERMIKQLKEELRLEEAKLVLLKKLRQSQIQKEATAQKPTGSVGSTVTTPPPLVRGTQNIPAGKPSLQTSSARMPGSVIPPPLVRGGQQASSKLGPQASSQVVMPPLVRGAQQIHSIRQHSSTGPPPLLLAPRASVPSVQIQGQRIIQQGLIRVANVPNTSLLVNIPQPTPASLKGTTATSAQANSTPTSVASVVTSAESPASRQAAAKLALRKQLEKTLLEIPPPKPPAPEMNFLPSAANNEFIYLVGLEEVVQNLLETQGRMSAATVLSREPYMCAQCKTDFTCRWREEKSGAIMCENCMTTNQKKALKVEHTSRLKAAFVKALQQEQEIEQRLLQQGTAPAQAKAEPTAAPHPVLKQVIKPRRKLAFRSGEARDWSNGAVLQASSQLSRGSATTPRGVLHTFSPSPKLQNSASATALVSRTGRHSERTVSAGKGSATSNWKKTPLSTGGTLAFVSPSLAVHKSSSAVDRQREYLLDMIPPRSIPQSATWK

log2 ratio of iodoacetamide-alkyne labeling, inactive:
ISCA2 C144 (UniProt Q86U28) 0.503, HPS6 C408 (UniProt Q86YV9) 0.221, LUZP1 C594 (UniProt Q86V48) 0.592, DDX42 C281 (UniProt Q86XP3) 0.251, UniProt Q86Y56_C409 0.0712, THNSL1 C82 (UniProt Q8IYQ7) 0.245, PDSS2 C71 (UniProt Q86YH6) 0.412, MEPCE C429 (UniProt Q7L2J0) 0.28, TRMT2A C111 (UniProt Q8IZ69) 0.00178, UniProt Q86YR5_C616 0.285, SLFN11 C884 (UniProt Q7Z7L1) -0.251, UniProt Q7Z2Z2_C604 -0.126, SUPT6H C527 (UniProt Q7KZ85) 0.044, UniProt Q86Y56_C84 0.144, VRK3 C191 (UniProt Q8IV63) 0.119, PARG C963 (UniProt Q86W56) 0.0149, KANSL1 C1020 (UniProt Q7Z3B3) 0.12, IRF2BP2 C19 (UniProt Q7Z5L9) 0.12, PEG10 C78 (UniProt Q86TG7) 0.0912, MRPL10 C180 (UniProt Q7Z7H8) -0.0852, UniProt Q8IX01_C656 0.197, MAEA C61 (UniProt Q7L5Y9) 0.00227, ALDH16A1 C28 (UniProt Q8IZ83) 0.0743, SRRM1 C33 (UniProt Q8IYB3) 0.367, UniProt Q7LBC6_C1470 0.156, UniProt Q7Z2T5_C320 0.31, USP48 C80 (UniProt Q86UV5) -0.0926, NT5DC3 C276 (UniProt Q86UY8) 0.0748, ANKMY2 C277 (UniProt Q8IV38) 0.0171, MEPCE C54 (UniProt Q7L2J0) 0.274, DCP2 C207 (UniProt Q8IU60) -0.0558, SCD5 C14 (UniProt Q86SK9) 0.247, SMC5 C726 (UniProt Q8IY18) 0.146, SLFN11 C6 (UniProt Q7Z7L1) 0.133, UniProt Q86Y56_C349 0.134, GATAD2A C417 (UniProt Q86YP4) 0.0595, HUWE1 C3658 (UniProt Q7Z6Z7) 0.44
